Results: patent US11585819B2, “Bistrifilate-based fluorogenic probes for detection of superoxide anion radical” (THE UNIVERSITY OF HONG KONG, priority 2014, dated 2023)

Tested on: BV-2 mouse microglial cells
Assay: Confocal imaging comparison of HKSOX-2m and MitoSOX Red with multiple superoxide inducers, co-staining with MitoTracker Green and Hoechst
Type: cell-based
Method: To further validate the performance of HKSOX-2m as a mitochondria-targeting superoxide probe, we conducted confocal imaging of HKSOX-2m with multiple superoxide inducers in BV-2 mouse microglial cells (FIG. 11), and compared HKSOX-2m's performance with that of MitoSOX Red™ (a widely used commercial fluorescent probe for mitochondrial superoxide detection; Invitrogen), by using the same drugs as stimulants (FIG. 12). Briefly, BV-2 cells were co-incubated for 40 min with probes (HKSOX-2m or MitoSOX Red™) and general superoxide inducers (PMA and zymosan, which elicit superoxide production from multiple superoxide sources including mitochondria) or specific mitochondrial superoxide inducers (diethyl succinate, diethyl malonate, and rotenone, which target the mitochondrial respiratory chain complexes). […] Slight spatial shifts in fluorescence signal were occasionally observed in the HKSOX-2m and MitoTracker Green channels, which could be accounted for by mitochondrial dynamics and time lag in confocal laser scanning for each channel. […] In fact, fluorescence distribution of the mitochondrial dye MitoTracker Green (Ex 488; Em 505 nm long-pass) was grossly distorted in the presence of MitoSOX Red™ (due to its broad tailing in emission spectrum), resulting in a loss of mitochondrial morphology.

SMILES	subcellular distribution (HKSOX-2m 2 μM, co-staining with MitoTracker Green 10 nM and Hoechst 33342 1 μg/mL)	mitochondrial morphology in the probe channel (HKSOX-2m 2 μM, drug-treated groups)	subcellular distribution (MitoSOX Red 4 μM)	mitochondrial morphology in the probe channel (MitoSOX Red 4 μM, Em 565-615 nm band-pass)
CC1CC(C)(C)N(CCCC(=O)N2CCN(C(=O)CCCC[P+](c3ccccc3)(c3ccccc3)c3ccccc3)CC2)c2cc3c(cc21)C1(OC(=O)c2ccccc21)c1cc(F)c(OS(=O)(=O)C(F)(F)F)c(F)c1O3 (stereo not shown) [HKSOX-2m]	cytoplasmically distributed and well co-localized with mitochondria	clear mitochondrial morphology could be discerned	–	–
Nc1ccc2c(c1)C(c1ccccc1)N(CCCCCC[P+](c1ccccc1)(c1ccccc1)c1ccccc1)c1cc(N)ccc1-2.[I-] (stereo not shown) [MitoSOX Red™]	–	–	stained nuclear DNA and fluoresced brightly in the nucleus	no distinct mitochondrial morphology could be observed
